According to PubChem BioAssay AID1347423 (Functional Genomics Laboratory (NCATS/FGL), 2020):
Hit rate of the full screen: of about 52,000 sequences, about 210 (0.4%) were called active.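 How the source made its calls: active means gene whose silencing raises cell survival under the drug, median off-target-corrected z-score across its silencing RNAs 2 or more; inactive means the rest.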 This is one part of the list.

Experiment: Resistance to Poly (ADP-Ribose) Polymerase inhibitor: Gene Identification via Genome-wide siRNA Screen
Conditions: mouse BRCA2 R2336H ES cells, olaparib, CellTiter-Glo viability; active compounds read high
In short: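 Mouse BRCA2 R2336H ES cells were reverse-transfected with siRNA (20 nM final), treated at 48 h with 500 nM olaparib, and read by CellTiter-Glo after 72 h. Scores: MAD-based z per siRNA, median per gene, seed off-target correction.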

Sequence | z-score
CCAGUAAACCGAGACCAUUTT against Nsfl1c | inactive: 1.53
GGUAUAUGUCACCAUACUCTT against Phxr2 | inactive: -0.404
CCUGUGUCUAUAUUCUUAGTT against Tep1 | inactive: -1.3
CCUAGAGCUUUUUAUAACATT against 7-Sep | inactive: 0.855
CGUUUCAACAAGCUCGUGUTT against 1700012H05Rik | inactive: -1.34
GGUAAUUGAGAAAUUUGAGTT against AA536749 | inactive: -0.339
GCGUAGACAAAAAACUAUCTT against F13b | inactive: -0.0775
GGAUCAUCAAGAUAUAGAUTT against Trpm7 | inactive: 2.01
CGGAAUCAUUCGGAAUGAGTT against Capza3 | inactive: 0.244
GGGCUUUAUUCAUCCACUCTT against 1700067P10Rik | inactive: 1.42
GGAAGUGAUGCAUAAAUACTT against Ppef2 | inactive: -0.697
CGCAGUGCACAUCAAGGGATT against Lfng | inactive: 0.589
GGAACAUCCAGUCUCUCACTT against Fbxo31 | inactive: 0.758
GGACAAGGUGGAUAAAAGUTT against Cttn | inactive: -1
GGAGAUCAGGCUGUUCACATT against Mei1 | inactive: -1.12
GCACAGUGGUGUUAAAUAGTT against 2510009E07Rik | inactive: -1.57
GCCUGAAGCAAGACAAGAUTT against 1110014F24Rik | inactive: 2.02
CCGACUCCCAUCUUGUGAATT against BC018371 | inactive: -1.63
GUCACCCGCUCAAAUCAGATT against Hist2h2be | inactive: 1.35
GCUUAAGGUUAUUUGCUUGTT against Cct7 | inactive: -0.0754
GGCCUUCAAAUCAUACGCUTT against 1700025F22Rik | inactive: 0.463
GCCGUACUUUCUGAGAUUATT against 2810403P18Rik | inactive: -0.75
GGCUAGAAUUCAGAGUUAATT against 9830132L24 | inactive: 2.35
GGAAUAAAGCUACAUUGUUTT against 6530401L14Rik | inactive: 0.892
GGAGAAGAAAGAAGUUAAATT against Mtap1b | inactive: -0.17
GGAGGAGUUCUGCAUCUACTT against Syngr1 | inactive: -0.61

Sequence | z-score
GCAUGUCCCAUCAAUGGUCTT against Akr1d1 | inactive: -0.606
ACAGAUUUUACUUUAACAUTT against Olfr1228 | inactive: 1.73
GGAUAUAUACACGGAGAACTT against Card15 | inactive: -0.0373
GCCUUAGGCCUUUGUUUCCTT against 5730494M16Rik | inactive: 0.0938
GGCAUAUGCUGGAGUUAUCTT against 2210018M11Rik | inactive: -0.941
GGUGAACGACUCCAUGUAUTT against Pvrl1 | inactive: -1.38
GCUGUUCCUAUUUCAUGACTT against A430065P19Rik | inactive: 0.0951
GGAAGUCAAGGUGAUUUCATT against 1110017C15Rik | inactive: -1.4
GGGACUUUGCCAAGAAUACTT against Klkb1 | inactive: -2.71
GCUGGCAGUUUGUAAGUAGTT against 6230409E13Rik | inactive: -0.925
GGAUAUUUGUCAUUUCCUUTT against 1110063G11Rik | inactive: 1.78
GGUUUUUCAGUGACACAUGTT against V1ri1 | inactive: -1.04
GCUGAAUGCCCAAUGCACUTT against Gabra1 | inactive: 0.0291
GGACAAACUCCGAGACUCCTT against Utf1 | inactive: -0.408
GGUUAGCUUCUUAAAACCATT against Sacy | inactive: -0.0897
GGACUUCAUAUUAGCAUGUTT against 1300012G16Rik | inactive: 0.873
GGUUCCAAGAACCCUCAUCTT against Swap70 | inactive: 0.364
GGAGAAAAUUGUCAAGAAGTT against Wdr10 | inactive: 0.0722
GGUGUUAGCGAAAUGCUCATT against Prlpn | inactive: -1.33
GGCUUACAGUCCUGAAUUUTT against Gpr17 | inactive: 1.08
GGUGAACUUGACCUCACAGTT against Sp1 | inactive: -2.38
GCAUGUACGUCGCCUUGUUTT against Dctd | inactive: -2.39
GCCUUUGCUGAGAUAACUUTT against Birc5 | inactive: -1.72
GGAUCGCUGGUGUGUUUUUTT against A530023G15Rik | inactive: 0.477
GGAAGUAUUAACAAUGGUGTT against 4632411J06Rik | inactive: -0.317
GGCAUUUGGGACUUGUGUGTT against Olfr78 | inactive: -0.193

Part of the list above in another layout.

| Sequence | z-score |
| --- | --- |
| GGCAUAUGCUGGAGUUAUCTT against 2210018M11Rik | inactive: -0.941 |
| GGCUUACAGUCCUGAAUUUTT against Gpr17 | inactive: 1.08 |
| GCCUUUGCUGAGAUAACUUTT against Birc5 | inactive: -1.72 |
| GGAUCGCUGGUGUGUUUUUTT against A530023G15Rik | inactive: 0.477 |

The listing continues:

Sequence | z-score
GGCAGUAACUUAAAACAGATT against Mecp2 | inactive: 0.261
CCAGCCUGAAAGAAGAGAATT against Ifna14 | inactive: 0.961
CCCUACAAGAAUUUUGAGATT against 4931415M17 | inactive: 0.417
CCGAUGGAGGUUCCUACUGTT against Cry2 | inactive: -0.461
CGUGGUUAAGUCACGACUGTT against Slc25a29 | inactive: -0.675
GCUGUCAAAUUAACCUGUGTT against Spin2 | inactive: 0.274
CCACGACGUACAUCCAUAATT against 5930418K15Rik | inactive: -0.427
GGUGACCUUGAACAAGCCCTT against Odf3 | inactive: 0.519
GCCGGUCCUCUCUUACUACTT against Irs1 | inactive: 0.68
CCAAUCGGUGAUCAAGAAATT against Tcfap2e | inactive: 1.74
CGCAGACGUACAAGUCUCATT against 1700018B24Rik | inactive: 0.222
GGGUUCUCUAUAUCACAGGTT against Mrgpra3 | inactive: -0.224
GGGCUACUACAAUGAGUACTT against Phospho1 | inactive: -0.329
GGCUUCUACCUUCGAGACUTT against AI790298 | inactive: -0.552
GCUAUGAACUUGUAGGAAATT against 1700042N06Rik | inactive: 0.558
GGCAUUGACACAAGGGAUGTT against Olfr975 | inactive: -2.12
GGAAAAAGAUGCUUUCACATT against 4933409I22 | inactive: -0.345
GGAGGAACUCCUAAAGAAGTT against Galnt15 | inactive: -0.261
GGACAUUGUUUACAAGCUGTT against Rnf3 | inactive: -0.146
GGGUUUUCUAACAUUCAAATT against Pigm | inactive: 0.793
GGAGUUUGACCGGAAGUACTT against 3110043J09Rik | inactive: -1.12
GGAAGAAGAAAAGAAAGACTT against Gphn | inactive: 0.849
GCAGUCGAGAUCAAACAGGTT against Crabp2 | inactive: 0.413
CCUUCAGCUUCCUUUUUACTT against A630098G03Rik | inactive: 0.142
GCUGUGACUCUACUGGAGGTT against Zfp397 | inactive: 0.21
GGCCUUGAUGCCAUUGUAATT against Zfp364 | inactive: -1.56

Sequence | z-score
CUGGUUAGAAAGAUCUUCCTT against AY616753 | inactive: -0.37
GGAGAAGAAAAAGAUUAUCTT against Atp6v1d | inactive: 0.762
GCACCUACUGAUUGAACGCTT against Calb3 | inactive: -0.371
CGGUUCUCUAAAUGGCUCATT against Rhox12 | inactive: -0.219
CCUAUCUUUUCCCUACAUGTT against BC013476 | inactive: -1.11
GGAUCUUCCAAGUUGUCUGTT against Srm | inactive: -0.666
CCUUUUUCGAAAAAUCAGGTT against Lyst | inactive: 0.181
GGAAAUGUGCUUUAUUCGUTT against Tktl1 | inactive: 1.06
CCACUGGUCAUUCUUGCUUTT against Olfr228 | inactive: -0.357
GGUGGAUGAAGACUACAUCTT against Csnk2b | inactive: -1.26
GCAAGACCAAAAUUCGAACTT against Mat2b | inactive: 1.5
GGACCAGGUUCACUUCCCUTT against Ovol1 | inactive: 0.343
GCACCAUGAAUUCUAUUGCTT against Kcnmb1 | inactive: 1.52
CGACAGCUACUACGUGGAUTT against Zfp366 | inactive: 2.06
GGAGCAAGAAAAUGUUCCATT against Akr1b7 | inactive: -1.55
CCUAGGGCUUGUGGUACUATT against Olfr1323 | inactive: 0.1
GGCACUUCCUCCCUCAACATT against 4833420G17Rik | inactive: -0.737
GGUGGUCUACCAGCAUUUGTT against 9430063L05Rik | inactive: -0.726
GGGAGUGGCUGAAAAGUGUTT against AI427652 | inactive: -0.834
GCUGAGUUUUGUGGUAGACTT against Olfr1310 | inactive: 1.04
CCCAUAAAGGAUCUGACAGTT against Casp7 | inactive: -1.61
GGCAGACAUUAAAUAUACUTT against Pax1 | inactive: 1.29
GGACAGUGUUUACAAACUUTT against Fbxw7 | inactive: 0.328
CCUGCAUCAGGACUAUUGGTT against Fndc4 | inactive: -0.414
GCGGAGCCAUAAUGAAUAATT against Rev3l | inactive: 0.228

No new results follow: entries from further up.
Sequence | z-score
GCUGUCAAAUUAACCUGUGTT against Spin2 | inactive: 0.274
CCACGACGUACAUCCAUAATT against 5930418K15Rik | inactive: -0.427
GGUGACCUUGAACAAGCCCTT against Odf3 | inactive: 0.519
GCCGGUCCUCUCUUACUACTT against Irs1 | inactive: 0.68
CCAAUCGGUGAUCAAGAAATT against Tcfap2e | inactive: 1.74
